In all, about 300,000 compounds went through this assay and about 3,700 (1.2%) were called active. The inconclusive results got no clear call from the source; some entries with a clear call stand among them for comparison. Calls come from the whole dose curve; tested in HEK293 cells. Potencies of inconclusive entries are doubtful fits and often do not repeat.
Assay: qHTS for Inhibitors of binding or entry into cells for Lassa Virus; note: nearly all actives have a fitted effect of over 50% in size
Details: Lassa virus pseudotype entry inhibition, cell reporter; series mostly up to 37.9 µM
Potency is the fitted concentration of half-maximal effect.

| Compound | Potency |
| --- | --- |
| NC(=O)C1CCN(C2CC(=O)N(Cc3ccc(N4CCCC4=O)cc3)C2=O)CC1 (centres undefined) | inconclusive: 0.103 µM [activator, partial curve, poor fit] |
| O=C(NCc1cccnc1)Nc1ccc(Cl)cc1 | inconclusive: 31.6 µM [activator, single point] |
| O=C1c2ccccc2C(=O)N1CCC(=O)N1CCc2ccccc21 | inactive |
| CCOc1ccc(-c2cc(C(=O)N/N=C(\C)c3cccnc3)c3ccccc3n2)c(OCC)c1 | inconclusive: 5.01 µM [inhibitor, full curve, poor fit] |
| S=C(Nc1cccc2ccccc12)Nc1cccc2ccccc12 | inactive |
| O=C(Nc1ccc(N2CCN(Cc3ccccc3)CC2)cc1)c1ncn[nH]1 | inactive |
| COCCCNC(=O)c1ccc(-n2c(-c3ccccc3)cc3c2CCC(C)C3)cc1 (centres undefined) | inconclusive: 5.01 µM [inhibitor, partial curve] |
| Cc1cccc(CSc2nc(-c3cccs3)ccc2C#N)c1 | inconclusive: 7.08 µM [inhibitor, full curve, poor fit] |
| O=C(COc1ccccc1F)Nc1nnc(SCc2cc(=O)c3ccccc3[nH]2)s1 | inactive |
| O=C(Nc1ncc2c(n1)-c1ccccc1CC2)c1ccc(Cl)cc1 | inactive |
| Cc1coc2c(C)c3oc(=O)c(CC(=O)NCCc4ccc(Cl)cc4)c(C)c3cc12 | inconclusive: 35.5 µM [activator, single point] |
| COc1cccc(-c2nc(-c3ccccc3)nc(N3CCN(C)CC3)c2C#N)c1 | inconclusive: 22.4 µM [inhibitor, partial curve, poor fit] |
| CC1(C)SC2C(NC(=O)C3(N)CCCCC3)C(=O)N2C1C(=O)O (centres undefined) | inactive |
| CN(C)CCP(=O)(c1ccccc1)c1ccccc1 | inactive |
| COc1ccc(CCN2C(=O)c3[nH]nc(-c4ccccc4O)c3C2c2cccc(Cl)c2)cc1 (centres undefined) | inconclusive: 35.5 µM [inhibitor, partial curve, poor fit] |
| CC(C)(C)n1nnnc1CN1CCN(C(c2ccccc2)c2ccccc2)CC1 | inconclusive: 35.5 µM [inhibitor, single point] |
| COc1ccccc1S(=O)(=O)c1ccccc1[N+](=O)[O-] | inactive |
| COc1cc(-n2nnnc2SCC(=O)N2CCN(c3ccc(F)cc3)CC2)c(OC)cc1Cl | inconclusive: 35.5 µM [inhibitor, single point] |
| Cc1ccc(S(=O)(=O)Nc2ccncc2)c(C)c1N(C)S(=O)(=O)c1ccc(F)cc1 | inconclusive: 5.01 µM [activator, partial curve, poor fit] |
| COCCNC(=S)NC12CC3CC(CC(C3)C1)C2 | inconclusive: 0.794 µM [activator, single point] |
| O=C(CCn1c(=O)sc2ccccc21)NCc1ccc2c(c1)OCO2 | inactive |
| COC(=O)[C@H](CC(C)C)NC(=O)CCc1nnc(COc2ccccc2)o1 | inactive |
| CCCCn1c(C)cc2c(c1=O)[C@H]1O[C@](CCCC)(Cc3cc(C#N)ccc31)O2 | inconclusive: 0.075 µM [activator, partial curve, poor fit] |

Rewritten tab-delimited: 4 of the compounds above.
Compound	Potency
COc1ccc(CCN2C(=O)c3[nH]nc(-c4ccccc4O)c3C2c2cccc(Cl)c2)cc1 (centres undefined)	inconclusive: 35.5 µM [inhibitor, partial curve, poor fit]
CC(C)(C)n1nnnc1CN1CCN(C(c2ccccc2)c2ccccc2)CC1	inconclusive: 35.5 µM [inhibitor, single point]
COc1ccccc1S(=O)(=O)c1ccccc1[N+](=O)[O-]	inactive
COc1cc(-n2nnnc2SCC(=O)N2CCN(c3ccc(F)cc3)CC2)c(OC)cc1Cl	inconclusive: 35.5 µM [inhibitor, single point]

Further structures follow:

| Compound | Potency |
| --- | --- |
| CCCC(=O)Oc1ccc(C2NC(=O)c3ccccc3O2)cc1 (centres undefined) | inconclusive: 1.26 µM [inhibitor, partial curve, poor fit] |
| CN(CC(=O)Nc1ccccc1C(F)(F)F)C(=O)c1cc2c(s1)CCCCC2 | inconclusive: 11.2 µM [inhibitor, partial curve, poor fit] |
| c1ccc(-n2ncc3c2ncn2nc(CSc4nc5ccccc5s4)nc32)cc1 | inconclusive: 6.51 µM [inhibitor, single point] |
| COc1ccc(NC(=O)CC2C(=O)N(C)C(=S)N2CCc2ccc(F)cc2)cc1 (centres undefined) | inconclusive: 11.2 µM [inhibitor, partial curve, poor fit] |
| O=C1C(c2ccc(F)cc2)N(Cc2ccc3c(c2)OCO3)C(=O)CN1C1CCCCC1 (centres undefined) | inconclusive: 18.3 µM [inhibitor, single point] |
| CCCn1c(=O)c2sccc2n2c(CCCC(=O)Nc3ccc(Oc4ccc(Cl)cc4)cc3)nnc12 | inconclusive: 7.94 µM [inhibitor, partial curve] |
| O=C(Nc1cccc2ccccc12)c1ccccc1 | inactive |
| CC(C)OC(=O)CC12CN3CN(C1)CC(CC(=O)OC(C)C)(C3)C2=O | inconclusive: 35.5 µM [inhibitor, single point] |
| Cc1ccc(NC(=O)c2csc(-c3ccccc3)c2C)cc1 | active: 6.51 µM |
| NC(=S)N/N=C\c1c2ccccc2cc2ccccc12 | inactive |
| CCOC(=O)c1[nH]c2ccc(OC)cc2c1NC(=S)N1CCN(c2ccccc2OC)CC1 | inconclusive: 5.01 µM [inhibitor, partial curve, poor fit] |
| CCc1c(C(=O)NCCc2cccc(C)c2)[nH]c(C)c1C(C)=O | active: 3.55 µM |
| Cc1cccc(C(=O)Oc2ccc(/C=N/O)cc2)c1 | inconclusive: 0.461 µM [activator, full curve, poor fit] |
| COc1ccc(NC(=O)CSc2nnc3n2CCCCC3)cc1 | inconclusive: 1.26 µM [inhibitor, single point] |
| O=C(Nc1ccc2[nH]ncc2c1)c1ccccc1Br | inconclusive: 0.891 µM [activator, single point] |
| O=C(OCc1cccc(Cl)c1)c1cc([N+](=O)[O-])ccc1N1CCOCC1 | inconclusive: 22.4 µM [inhibitor, single point] |
| Clc1ccc(CN2C3=NCCCN3c3ccccc32)cc1Cl | inconclusive: 17.8 µM [inhibitor, single point] |
| CCn1ccnc1CN(C)Cc1cn(-c2ccc(C)cc2)nc1-c1cccc(C)c1 | inconclusive: 10 µM [inhibitor, partial curve, poor fit] |
| O=C(Cc1c(Sc2ccccc2)c2ccccc2n1Cc1ccccc1)NCCO | inconclusive: 16.4 µM [inhibitor, single point] |
| CCNS(=O)(=O)c1ccc(CCC(=O)NCc2ccccc2)cc1 | inactive |
| CCCC(C(=O)NCc1ccc(OC)cc1)N(Cc1ccco1)C(=O)c1snc(C(N)=O)c1N (centres undefined) | inconclusive: 25.9 µM [inhibitor, single point] |
| COc1ccc(Cn2nnnc2C(CC(C)C)N2CCC(C(N)=O)CC2)cc1 (centres undefined) | inactive |
| O=S(=O)(Nc1ccc(Cc2ccncc2)cc1)c1ccc(Cl)cc1 | inconclusive: 7.94 µM [inhibitor, full curve, poor fit] |

| Compound | Potency |
| --- | --- |
| CCN(CC)C(=O)c1ccc(S(=O)(=O)c2ccccc2)cc1 | inconclusive: 6.31 µM [inhibitor, single point] |
| O=C1CC(c2ccccc2)=NN1c1nc(-c2ccccc2)cs1 | inconclusive: 35.5 µM [inhibitor, single point] |
| COc1ccc(S(=O)(=O)Nc2cccc(-c3ccc4nncn4n3)c2)cc1 | inconclusive: 1.12 µM [inhibitor, partial curve, poor fit] |
| CCCCCc1nc2c(c3c1CCCC3)CCCC2 | inactive |
| O=C(CN1CCN(c2ccc(F)cc2)CC1)NCc1cccs1 | inconclusive: 35.5 µM [inhibitor, single point] |
| O=C(Oc1ccc(N2C(=O)CCC2=O)cc1)c1ccco1 | inconclusive: 12.6 µM [activator, partial curve, poor fit] |
| CCCCOC(=O)/C=C\C(=O)NC(N)=O | inconclusive: 22.4 µM [inhibitor, single point] |
| COc1cccc(OCCSc2nc(N)cc(N)n2)c1 | inconclusive: 35.5 µM [inhibitor, single point] |
| Cc1ccc(S(=O)(=O)c2c(C)nn(C(C)(C)C)c2OC(=O)c2ccco2)cc1 | active: 11.2 µM |
| CCOC(=O)CCCNC(=O)CCNC(=O)c1ccc(OCCC(C)C)cc1 | inconclusive: 25.1 µM [inhibitor, single point] |
| CCCCOC(=O)Nc1nc2ccccc2s1 | inconclusive: 22.4 µM [inhibitor, single point] |
| O=C1c2c(O)cc(O)cc2OC(c2ccc(O)c(O)c2)C1O (centres undefined) | inconclusive: 1.3 µM [activator, full curve, poor fit] |
| COc1ccc(CN2CCN(C(=O)CCC(=O)Nc3nnc(C(C)C)s3)CC2)cc1F | inactive |
| CC(=O)Nc1nc(-c2ccccc2)nc(C)c1C(C)=O | inactive |
| CN1c2ccccc2Sc2cc(N)ccc21 | inconclusive: 35.5 µM [inhibitor, single point] |
| CN(C)c1nc(Oc2ccc(=O)n(C)n2)nc(N2CCOCC2)n1 | inconclusive: 4.11 µM [inhibitor, partial curve, poor fit] |
| Cc1cc(C(=O)CSc2nnc3ccccn23)c(C)n1-c1ccccc1 | active: 0.891 µM |
| O=C(Nc1ncc(Cc2ccccc2)s1)C1COc2ccccc2O1 (centres undefined) | inconclusive: 0.794 µM [activator, single point] |
| O=C(COc1cccc(Cl)c1)N/N=C\c1cc2ccccc2nc1Cl | inconclusive: 0.708 µM [inhibitor, single point] |
| O=S1(=O)c2c(F)cccc2OC(COc2ccccc2)CN1CCc1ccc(F)cc1 (centres undefined) | inconclusive: 0.0705 µM [activator, full curve, poor fit] |
| CCN(C(=O)CSc1nc2scc(-c3ccccc3)c2c(=O)n1N)C1CCS(=O)(=O)C1 (centres undefined) | inactive |
| CCN=c1sc(C(=O)NCCc2ccccc2)cc(=O)n1CC | inconclusive: 7.3 µM [inhibitor, partial curve, poor fit] |
| CCOc1ccccc1NC(=O)Nc1ccc(Cl)cc1 | inconclusive: 20.6 µM [inhibitor, single point] |

Copied from the list:
CN(C)CCP(=O)(c1ccccc1)c1ccccc1 – Potency: inactive
CCN(C(=O)CSc1nc2scc(-c3ccccc3)c2c(=O)n1N)C1CCS(=O)(=O)C1 (centres undefined) – Potency: inactive

Reference: PubChem BioAssay AID540256 (National Center for Advancing Translational Sciences (NCATS), 2011)
